# Test results: PMC6896289
# Amino acid sequences for entries named in this document (tags omitted).
# UniProt Q92769: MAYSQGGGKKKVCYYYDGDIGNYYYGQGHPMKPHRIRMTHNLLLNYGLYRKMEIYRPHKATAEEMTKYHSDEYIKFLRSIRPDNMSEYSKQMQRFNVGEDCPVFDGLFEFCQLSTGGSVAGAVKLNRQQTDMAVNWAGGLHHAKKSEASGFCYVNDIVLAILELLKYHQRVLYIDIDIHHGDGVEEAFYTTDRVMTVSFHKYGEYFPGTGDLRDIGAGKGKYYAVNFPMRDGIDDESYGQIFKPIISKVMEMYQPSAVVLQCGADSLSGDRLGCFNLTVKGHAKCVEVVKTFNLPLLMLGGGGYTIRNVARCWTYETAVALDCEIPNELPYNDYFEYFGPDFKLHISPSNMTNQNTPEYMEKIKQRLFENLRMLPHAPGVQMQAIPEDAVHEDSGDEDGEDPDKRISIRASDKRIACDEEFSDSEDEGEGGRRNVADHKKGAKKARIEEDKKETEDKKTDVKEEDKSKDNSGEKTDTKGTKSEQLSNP
# UniProt P42224: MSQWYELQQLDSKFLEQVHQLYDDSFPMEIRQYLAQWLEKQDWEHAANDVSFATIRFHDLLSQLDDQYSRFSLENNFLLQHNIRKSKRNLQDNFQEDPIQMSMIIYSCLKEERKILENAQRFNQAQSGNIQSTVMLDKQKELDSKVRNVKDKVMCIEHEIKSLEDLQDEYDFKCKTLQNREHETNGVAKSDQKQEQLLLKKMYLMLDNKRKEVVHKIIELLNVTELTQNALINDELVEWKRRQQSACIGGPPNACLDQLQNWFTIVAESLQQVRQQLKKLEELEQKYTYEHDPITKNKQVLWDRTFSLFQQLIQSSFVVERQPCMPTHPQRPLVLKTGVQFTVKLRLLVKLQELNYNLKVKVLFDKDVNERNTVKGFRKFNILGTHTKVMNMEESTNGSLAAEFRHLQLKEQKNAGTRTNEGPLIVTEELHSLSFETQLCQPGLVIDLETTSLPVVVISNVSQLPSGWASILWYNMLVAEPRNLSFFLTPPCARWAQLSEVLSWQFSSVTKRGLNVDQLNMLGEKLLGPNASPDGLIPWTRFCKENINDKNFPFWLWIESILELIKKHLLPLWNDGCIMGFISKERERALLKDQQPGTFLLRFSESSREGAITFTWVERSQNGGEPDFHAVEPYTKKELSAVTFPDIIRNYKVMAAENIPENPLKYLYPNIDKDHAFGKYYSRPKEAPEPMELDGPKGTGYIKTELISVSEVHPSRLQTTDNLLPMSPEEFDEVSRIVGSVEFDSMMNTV
# UniProt P52630: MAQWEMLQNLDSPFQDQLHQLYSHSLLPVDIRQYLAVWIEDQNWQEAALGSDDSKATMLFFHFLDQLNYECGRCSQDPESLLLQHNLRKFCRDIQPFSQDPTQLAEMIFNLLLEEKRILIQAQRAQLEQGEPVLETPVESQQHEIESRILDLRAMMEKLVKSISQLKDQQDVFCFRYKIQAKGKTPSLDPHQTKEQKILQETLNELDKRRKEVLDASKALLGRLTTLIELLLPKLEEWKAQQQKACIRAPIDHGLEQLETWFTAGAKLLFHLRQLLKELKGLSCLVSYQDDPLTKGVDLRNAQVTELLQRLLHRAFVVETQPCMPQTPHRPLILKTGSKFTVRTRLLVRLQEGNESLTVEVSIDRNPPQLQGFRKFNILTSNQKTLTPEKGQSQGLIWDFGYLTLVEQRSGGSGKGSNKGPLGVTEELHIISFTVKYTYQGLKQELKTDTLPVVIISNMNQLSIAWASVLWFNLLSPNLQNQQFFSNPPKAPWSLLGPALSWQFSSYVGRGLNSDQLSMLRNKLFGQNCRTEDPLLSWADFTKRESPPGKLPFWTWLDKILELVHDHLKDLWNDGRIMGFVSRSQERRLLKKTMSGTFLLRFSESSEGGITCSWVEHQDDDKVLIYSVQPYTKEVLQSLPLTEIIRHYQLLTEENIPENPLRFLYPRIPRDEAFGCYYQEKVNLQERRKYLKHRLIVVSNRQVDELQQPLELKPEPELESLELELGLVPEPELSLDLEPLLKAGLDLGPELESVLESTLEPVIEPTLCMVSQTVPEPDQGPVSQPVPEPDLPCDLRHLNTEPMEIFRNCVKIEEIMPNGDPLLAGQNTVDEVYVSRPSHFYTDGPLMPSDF
# These are yes or no findings as the source states them, for the method shown. In cells and extracts the contact can be indirect. Some results given as binding are weak or reduced against the parent protein; the word gives no strength.
# Biological target: Histone deacetylase 2 (human (endogenous in A375)) (UniProt Q92769)
# Assay: co-IP; lysates of A375 cells (with or without IFNα 1000 U/ml for 6 h; control or NOS1-overexpressing cells) precipitated with HDAC2 or IgG antibodies, Co-Immunoprecipitation Kit (Thermo Fisher 26149), western blot for STAT1 and STAT2
row,Substance,binding
1,Signal transducer and activator of transcription 1 (from UniProt P42224 1-750),binds
2,Signal transducer and activator of transcription 2 (from UniProt P52630 1-851),binds
